Results as given in paper PMC7819943, “Rice protein-binding microarrays: a tool to detect cis-acting elements near promoter regions in rice”.
The other results are listed elsewhere or left out.

Protein sequences, listed by entry. Tags and fused reporters are not part of them.
UniProt Q0JBA9, entry or part of it: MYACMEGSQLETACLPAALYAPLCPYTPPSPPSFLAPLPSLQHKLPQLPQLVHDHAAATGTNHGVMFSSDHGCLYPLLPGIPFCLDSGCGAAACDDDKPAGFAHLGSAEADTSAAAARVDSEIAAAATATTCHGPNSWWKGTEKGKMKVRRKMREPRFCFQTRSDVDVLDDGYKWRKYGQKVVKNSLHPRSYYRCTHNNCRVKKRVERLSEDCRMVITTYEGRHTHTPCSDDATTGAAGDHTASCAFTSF

target: OsWRKY34 (Oryza sativa, UniProt Q0JBA9 1-250); experiment: protein-binding microarray (RPBM); PBS, 2% BSA, 51.3 ng/ul salmon testes DNA, 50 uM zinc acetate, 200 nM TF, 25 C, 1 h; high values mean tight binding; settings: protein: recombinant; tags: N-terminal polyhistidine and DsRed monomer fusion (pET32a); label: CyDye5-dUTP incorporated in the synthesized complementary strand; 3' TTTTT single-stranded linker to array surface; dsDNA, one strand shown
Outline: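 Transcription factors were each fused at the N-terminus to a polyhistidine tag plus DsRed and expressed in E. coli BL21-CodonPlus before Ni–NTA purification. Binding to a double-stranded custom Agilent array was carried out with 200 nM protein at 25 °C for 1 h in PBS, 2% BSA, salmon testes DNA and 50 µM zinc acetate. The binding signal is per-feature fluorescence intensity, in arbitrary units, on an Axon 4000B scanner.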

Row | Sequence | binding signal
1 | TAAACCCTAAGTTTCTGTGTCCAACGTTTGACTGTCTGTCCGGAGTCACCTAGTGCAG | 8170 fluorescence intensity (a.u.)
2 | CGTCTTGTCTTGGCGTATGTTGGCTTGTATGTTGTTCCGTCGGAGTCACCTAGTGCAG | 10500 fluorescence intensity (a.u.)
3 | CATGTGCTACTTGTCTTGCCGTTGATCTTGCTGCTCGATTCGGAGTCACCTAGTGCAG | 8380 fluorescence intensity (a.u.)
4 | ATTTTTCTAGTGTTTTGAACTTTTGATCATCCATTTTGTCCGGAGTCACCTAGTGCAG | 9850 fluorescence intensity (a.u.)
5 | TGTCAACCGCGCGCCAAATTCTCCCACATATATCCTCCACCGGAGTCACCTAGTGCAG | 12500 fluorescence intensity (a.u.)
6 | GGAGGTAGATGGAAAAAGTAAATGGTGGAGGGTTGTAATTCGGAGTCACCTAGTGCAG | 11300 fluorescence intensity (a.u.)
7 | ACGGCGACCGCGCCTACCGCTTCCTGTTCGACTGCGTCGCCGGAGTCACCTAGTGCAG | 8220 fluorescence intensity (a.u.)
8 | ACTATTTGTCAATCATACTTCTTTCATGATATTCATTTTGCGGAGTCACCTAGTGCAG | 8070 fluorescence intensity (a.u.)
9 | CCCTCCTTCCCTTTTAGTGGGTCTGTTTTCTTGGAGCGCGCGGAGTCACCTAGTGCAG | 8600 fluorescence intensity (a.u.)
10 | CCATCTCCACCGAGCTCGGCCGTCTGCCCCGCTCATCTCGCGGAGTCACCTAGTGCAG | 11300 fluorescence intensity (a.u.)
11 | ACAAATTGGTCACTGGCTGAATAGTTTCTACATCAGTTAACGGAGTCACCTAGTGCAG | 10200 fluorescence intensity (a.u.)
12 | AGGTGGTGTAGCGCGCGCGGGTGGGGTTGGGTTACGTGGTCGGAGTCACCTAGTGCAG | 15600 fluorescence intensity (a.u.)
13 | GATCATGGCGCGCACCGACCGGTCGTCGTCACTCCAACGTCGGAGTCACCTAGTGCAG | 8960 fluorescence intensity (a.u.)
14 | TTGTCTGAAGGCTGCTGCCTTTGTTTTTTTTTCGTCTGCTCGGAGTCACCTAGTGCAG | 9540 fluorescence intensity (a.u.)
15 | GTCTTAATTGTTCCTCATGTGTTTGTATGTTGTCTGGATTCGGAGTCACCTAGTGCAG | 11600 fluorescence intensity (a.u.)
16 | CAAGGGATTTGTGGAGGGTGGCATCGCGTCCATCGTCGCTCGGAGTCACCTAGTGCAG | 8320 fluorescence intensity (a.u.)
17 | GATTGTAGTTTGTATATGCTGCCCATTTCTGTTGTTCTTTCGGAGTCACCTAGTGCAG | 18900 fluorescence intensity (a.u.)
18 | ACAAACTCGCCGCACACCTGCCACTCCGCCGAGATCTCACCGGAGTCACCTAGTGCAG | 12100 fluorescence intensity (a.u.)
19 | TACCTACTCCCAATGTGAACTGATTCCATCTCTGCTTTCTCGGAGTCACCTAGTGCAG | 8840 fluorescence intensity (a.u.)
20 | TAAGTCCATCCACAATTTCTTTCTGTCAGTTTCCTTGACTCGGAGTCACCTAGTGCAG | 9620 fluorescence intensity (a.u.)
21 | CACCACTCACGCCATCCATCCATCCATCCATCCACCTCTGCGGAGTCACCTAGTGCAG | 8630 fluorescence intensity (a.u.)
22 | TTTATACTTGGACTCTTCTTTTCTTTTTTTTCTTTTTCTCCGGAGTCACCTAGTGCAG | 10700 fluorescence intensity (a.u.)
23 | TTATTGAGTGGGATTTCTCGTTCGGATTTTGATTGTGTTTCGGAGTCACCTAGTGCAG | 8380 fluorescence intensity (a.u.)
24 | GTGGTTGTCTCGCACCCCACCGCCGCTGCTCTCGTTGTTGCGGAGTCACCTAGTGCAG | 8080 fluorescence intensity (a.u.)
25 | CCAGTCGCCATCGCTCTCTTCCACTGGTTCGCTCTCTCCGCGGAGTCACCTAGTGCAG | 9510 fluorescence intensity (a.u.)
26 | TAATTTTTTTTCCTATCATATGATTTATTGTTAAATATACCGGAGTCACCTAGTGCAG | 10300 fluorescence intensity (a.u.)
27 | TGTTCATTCATTTCCTCATCTTTTCTGTGCTCCTTTACAGCGGAGTCACCTAGTGCAG | 9790 fluorescence intensity (a.u.)

A run of entries from further up:
Row | Sequence | binding signal
23 | TTATTGAGTGGGATTTCTCGTTCGGATTTTGATTGTGTTTCGGAGTCACCTAGTGCAG | 8380 fluorescence intensity (a.u.)
24 | GTGGTTGTCTCGCACCCCACCGCCGCTGCTCTCGTTGTTGCGGAGTCACCTAGTGCAG | 8080 fluorescence intensity (a.u.)

(cont.)

Row | Sequence | binding signal
28 | CCGTATATTTTTTCCTCTCATTTTCCCCTTTTTCTTTTTGCGGAGTCACCTAGTGCAG | 8160 fluorescence intensity (a.u.)
29 | GCAAGCTGTACTTTTTAAGCATTTCCCCTACGGGATTTTACGGAGTCACCTAGTGCAG | 8650 fluorescence intensity (a.u.)
30 | GGGTGTTATGAGTTGTGTTTGCTGTAGCTTGTCAGCTGTTCGGAGTCACCTAGTGCAG | 10600 fluorescence intensity (a.u.)
31 | GCCGGTGCTCCGCCCGTCGACCAAGCCACTGTGCGCCATGCGGAGTCACCTAGTGCAG | 8450 fluorescence intensity (a.u.)
32 | GTAGGGTAGGGCAGGGCAGAAGAGGTGAGAGGAAAGCAAGCGGAGTCACCTAGTGCAG | 9230 fluorescence intensity (a.u.)
33 | ATGTCATATGATAAAGGGTTCGCATTGAATTTTAACTAATCGGAGTCACCTAGTGCAG | 8720 fluorescence intensity (a.u.)
34 | CACCCTCACTCGCTCGCCATCTTGTCAGCGTACGGACCCTCGGAGTCACCTAGTGCAG | 9370 fluorescence intensity (a.u.)
35 | TGGGTATTTGATTCCTATCTCACTGTATGTGTCAATTGAACGGAGTCACCTAGTGCAG | 9990 fluorescence intensity (a.u.)
36 | GAACTTGTTTTTTGTATTTTTCTTTTCGGTAGCTACTTTCCGGAGTCACCTAGTGCAG | 8020 fluorescence intensity (a.u.)
37 | ACTATTACTACTACTTCAGGTTCTTGCTGTTGATGCATGCCGGAGTCACCTAGTGCAG | 8730 fluorescence intensity (a.u.)
38 | TCTTTTACTCGGCGCGCCTTGTCTCTCTCTCTCAGTACGACGGAGTCACCTAGTGCAG | 9570 fluorescence intensity (a.u.)
39 | GTGTGTGTGGTAGATGTAAGATTGGGAACTTTGTTGGTAACGGAGTCACCTAGTGCAG | 11900 fluorescence intensity (a.u.)
40 | CACGTACCCAACCAAACAAGCACCGCCTTGCGCCAGCCATCGGAGTCACCTAGTGCAG | 8180 fluorescence intensity (a.u.)
41 | GCCATAGTTCATTATGTTGGTAGGATTAATTTTTTTTTTTCGGAGTCACCTAGTGCAG | 8310 fluorescence intensity (a.u.)
42 | TGATTTTTTCTCACATGTTTGACCATTTGTCTTATTCAAACGGAGTCACCTAGTGCAG | 10100 fluorescence intensity (a.u.)
43 | ACTAGGGTTCTCTTCTCACTCCATCGCTAGCGGCGGCTCACGGAGTCACCTAGTGCAG | 8340 fluorescence intensity (a.u.)
44 | AACCCTTTCCCGCTGCTTCTGTTCGCCGCCGCCGTGCTCCCGGAGTCACCTAGTGCAG | 9200 fluorescence intensity (a.u.)
45 | TACGTCGTCCCATGCTACTGCTCCGGGCTCCAGCATCCACCGGAGTCACCTAGTGCAG | 8770 fluorescence intensity (a.u.)
46 | TTGCTCTCCTCTCTGGATTGATGTGTTCGTTTGGCCATTCCGGAGTCACCTAGTGCAG | 8940 fluorescence intensity (a.u.)
47 | GAGATGGTGGTGGCGGCGGGGCACGGCGGGCGGCGGAGGCCGGAGTCACCTAGTGCAG | 11800 fluorescence intensity (a.u.)
48 | TTTTCCTCTGTTGTTGATAATGTGCCGTTTTGACTGACTCCGGAGTCACCTAGTGCAG | 8100 fluorescence intensity (a.u.)
49 | AAACGGTCAACCCACTTTCCCACCCTCTCCATTTTTTACGCGGAGTCACCTAGTGCAG | 11200 fluorescence intensity (a.u.)
50 | TATATATATATATATATATATATATATATCCCAAAAATTGCGGAGTCACCTAGTGCAG | 10900 fluorescence intensity (a.u.)
51 | CCCCTAGTTGTAAAGCATTATTGGTTCTGTTTCTGCACTTCGGAGTCACCTAGTGCAG | 8350 fluorescence intensity (a.u.)
52 | CTACCCGATTGCAAGCTCATCGATGTCGATTTCATTCATCCGGAGTCACCTAGTGCAG | 10300 fluorescence intensity (a.u.)
53 | CTACTTACCCTTTTTAATGCAAGCATCAATCCATTGCTTTCGGAGTCACCTAGTGCAG | 9470 fluorescence intensity (a.u.)
54 | CATTCCGGTTGGTGTTTTTCGCTTGATTTGTACTACTATTCGGAGTCACCTAGTGCAG | 18500 fluorescence intensity (a.u.)

Two entries from above in another layout.
Row	Sequence	binding signal
48	TTTTCCTCTGTTGTTGATAATGTGCCGTTTTGACTGACTCCGGAGTCACCTAGTGCAG	8100 fluorescence intensity (a.u.)
49	AAACGGTCAACCCACTTTCCCACCCTCTCCATTTTTTACGCGGAGTCACCTAGTGCAG	11200 fluorescence intensity (a.u.)
